Values of other authors in US20200309767A1, “HIGH-THROUGHPUT IMAGING-BASED METHODS FOR PREDICTING CELL-TYPE-SPECIFIC TOXICITY OF XENOBIOTICS WITH DIVERSE CHEMICAL STRUCTURES” (priority 2015, published 2020).

Columns and labels:
[1] = tested on: human proximal tubular cells (PTCs); conditions: known toxicity flag 1/0; cited from earlier work
human kidney = conditions: in vivo; cited from earlier work

Row | SMILES | PTC-toxic [1] | Nephrotoxic (human kidney)
1 | O=C(O)c1cn(C2CC2)c2cc(N3CCNCC3)c(F)cc2c1=O [Ciprofloxacin] | 0 | –
2 | NS(=O)(=O)c1cc(C(=O)O)c(NCc2ccco2)cc1Cl [Furosemide] | – | 1
